The text below walks through data of doi:10.1101/362988.

No constants are given. Whether binding was seen depends on the method and setting. In cells and extracts the contact can be indirect. Some results given as binding are weak or reduced against the parent protein; the word gives no strength. For part of these data: Tags and fused reporters may be left off the sequences shown.

What all share (experiment): co-IP
Test [1] deals with Mta2-GFP (mouse (endogenous in ES cells)) (UniProt Q9R190).
Test [2] addresses Mta3-Avi-3xFLAG (mouse (endogenous in ES cells)) (UniProt Q924K8).
The target in test [3] is Mta1-Avi-3xFLAG (mouse (endogenous in ES cells)) (UniProt Q8K4B0).
The target of test [4] is T1, Mta3-Avi-3xFLAG (mouse (endogenous in ES cells)), Q924K8.
T1 chain: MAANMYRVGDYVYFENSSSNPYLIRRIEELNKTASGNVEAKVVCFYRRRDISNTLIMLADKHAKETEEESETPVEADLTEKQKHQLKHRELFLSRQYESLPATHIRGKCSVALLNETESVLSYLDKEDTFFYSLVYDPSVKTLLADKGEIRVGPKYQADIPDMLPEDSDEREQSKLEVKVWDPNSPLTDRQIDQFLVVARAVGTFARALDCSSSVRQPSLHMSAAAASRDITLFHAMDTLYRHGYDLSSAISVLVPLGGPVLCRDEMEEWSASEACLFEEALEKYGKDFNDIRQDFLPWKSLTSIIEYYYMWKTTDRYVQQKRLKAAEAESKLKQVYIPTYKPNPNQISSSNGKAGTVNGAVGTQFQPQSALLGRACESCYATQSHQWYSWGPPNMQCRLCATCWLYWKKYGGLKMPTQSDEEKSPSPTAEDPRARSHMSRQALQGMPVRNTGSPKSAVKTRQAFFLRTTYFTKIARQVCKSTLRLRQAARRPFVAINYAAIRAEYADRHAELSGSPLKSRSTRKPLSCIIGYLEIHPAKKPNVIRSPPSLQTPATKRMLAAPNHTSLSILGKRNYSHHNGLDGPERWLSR
Particulars: remark: other sources report otherwise.

In test [5] the target is T2, Mta2-GFP (mouse (endogenous in ES cells)), Q9R190.
T2 chain: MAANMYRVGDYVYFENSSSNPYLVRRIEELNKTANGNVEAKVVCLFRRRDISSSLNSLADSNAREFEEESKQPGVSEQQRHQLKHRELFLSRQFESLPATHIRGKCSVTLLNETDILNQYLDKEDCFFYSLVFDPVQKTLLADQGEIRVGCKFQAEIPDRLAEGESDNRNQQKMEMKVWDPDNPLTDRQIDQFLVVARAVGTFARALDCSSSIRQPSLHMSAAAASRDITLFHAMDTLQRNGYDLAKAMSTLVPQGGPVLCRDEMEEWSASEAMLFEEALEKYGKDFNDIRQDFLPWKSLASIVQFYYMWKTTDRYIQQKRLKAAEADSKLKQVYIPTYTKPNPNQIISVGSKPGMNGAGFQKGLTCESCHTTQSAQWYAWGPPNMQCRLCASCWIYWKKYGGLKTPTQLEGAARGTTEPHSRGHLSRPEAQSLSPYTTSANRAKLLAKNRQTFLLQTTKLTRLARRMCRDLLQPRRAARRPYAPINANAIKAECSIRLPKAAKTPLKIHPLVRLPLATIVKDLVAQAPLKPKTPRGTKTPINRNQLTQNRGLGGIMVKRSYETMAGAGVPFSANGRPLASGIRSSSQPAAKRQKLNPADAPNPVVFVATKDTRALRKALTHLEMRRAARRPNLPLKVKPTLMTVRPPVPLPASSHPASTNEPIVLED
Particulars: remark: other sources report otherwise.

Test [6] concerns the target T3, Mta1-Avi-3xFLAG (mouse (endogenous in ES cells)), Q8K4B0.
T3 chain: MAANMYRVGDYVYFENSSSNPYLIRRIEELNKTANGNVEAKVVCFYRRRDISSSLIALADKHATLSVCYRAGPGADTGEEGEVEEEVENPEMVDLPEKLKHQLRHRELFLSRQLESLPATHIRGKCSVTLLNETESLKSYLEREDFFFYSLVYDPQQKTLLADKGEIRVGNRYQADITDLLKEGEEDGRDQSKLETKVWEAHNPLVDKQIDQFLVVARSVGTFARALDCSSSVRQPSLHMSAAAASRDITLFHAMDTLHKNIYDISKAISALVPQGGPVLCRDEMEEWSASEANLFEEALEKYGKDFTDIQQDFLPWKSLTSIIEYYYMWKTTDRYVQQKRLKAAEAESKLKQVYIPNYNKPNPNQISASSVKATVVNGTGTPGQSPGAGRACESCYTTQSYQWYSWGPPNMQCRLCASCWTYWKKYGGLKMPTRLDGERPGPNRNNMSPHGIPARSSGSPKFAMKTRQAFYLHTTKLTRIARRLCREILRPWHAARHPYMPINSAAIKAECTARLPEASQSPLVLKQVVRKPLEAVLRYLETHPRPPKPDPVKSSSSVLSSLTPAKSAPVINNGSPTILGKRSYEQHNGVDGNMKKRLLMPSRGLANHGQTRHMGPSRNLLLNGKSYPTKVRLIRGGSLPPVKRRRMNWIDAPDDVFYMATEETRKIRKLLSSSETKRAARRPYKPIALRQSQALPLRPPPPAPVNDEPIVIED
Particulars: remark: other sources report otherwise.

As to Mta1 (from UniProt Q8K4B0 1-715), the binding result in test [1] and in test [2] was “binds” each time. As for Mta2 (from UniProt Q9R190 1-668), the binding entry in test [3] and in test [2] was “binds” in each case.

Mta3 (from UniProt Q924K8 1-591): the binding result in test [1] and in test [3] was “binds” throughout.

B1: Mta3, Q924K8 1-591 (protein)
chain: T1 chain
Consider B1, for which, in test [4], the binding result was “binds”.

B2: Mta2, Q9R190 1-668 (protein)
chain: T2 chain
For the molecule B2, the binding result in test [5] is “binds”.

B3: Mta1, Q8K4B0 1-715 (protein)
chain: T3 chain
B3: the binding entry in test [6] is “binds”.
